Results: the supplement of paper PMC10382679
Single values of this set are uncertain.

B1: Rpb7; numbered along this chain (parent)
chain: MFFIKDLSLNITLHPSFFGPRMKQYLKTKLLEEVEGSCTGKFGYILCVLDYDNIDIQRGRILPTDGSAEFNVKYRAVVFKPFKGEVVDGTVVSCSQHGFEVQVGPMKVFVTKHLMPQDLTFNAGSNPPSYQSSEDVITIKSRIRVKIEGCISQVSSIHAIGSIKEDYLGAI

Assays:
[1] = variants of: B1; experiment: log2 fold change of mutant abundance, UV-irradiated vs unirradiated; higher = more UV resistant (enriched after UV); conditions: with Saccharomyces cerevisiae rad7Δ rad26Δ; UV dose (J/m2): 10; genetic background: rad7Δ rad26Δ rpb7Δ + plasmid RPB7 library; outgrowth: 10 cell divisions
[2] = variants of: B1; experiment: NOISeq theta enrichment statistic, UV-irradiated vs unirradiated (dimensionless); higher = more UV resistant (enriched after UV); conditions: with Saccharomyces cerevisiae rad7Δ rad26Δ; UV dose (J/m2): 10; genetic background: rad7Δ rad26Δ rpb7Δ + plasmid RPB7 library; outgrowth: 10 cell divisions

Row | Variant | log2 fold change of mutant abundance [1] | NOISeq theta enrichment statistic [2]
1 | MFFIKDLSLNITLHPSFFGPRMKQYLKTKLLEEVEGSCTGKFGYILCVLDYDNIDIQRGRILPTDGSAEFNVKYRAVVFKPFKGEVVDSTVVSCSQHGFEVQVGPMKVFVTKHLMPQDLTFNAGSNPPSYQSSEDVITIKSRIRVKIEGCISQVSSIHAIGSIKEDYLGAI [G89S] | 0.00726 | 0.0189
2 | MFFIKDLSLNITLHPSFFGPRMKQYLKTKLLEEVEGSCTGKFGYILCVLDYDNIDIQRGRILPTDGSAEFNVKYRAVVFKPFKGEVVDWTVVSCSQHGFEVQVGPMKVFVTKHLMPQDLTFNAGSNPPSYQSSEDVITIKSRIRVKIEGCISQVSSIHAIGSIKEDYLGAI [G89W] | 0.331 | 0.311
3 | MFFIKDLSLNITLHPSFFGPRMKQYLKTKLLEEVEGSCTGKFGYILCVLDYDNIDIQRGRILPTDGSAEFNVKYRAVVFKPFKGEVVDVTVVSCSQHGFEVQVGPMKVFVTKHLMPQDLTFNAGSNPPSYQSSEDVITIKSRIRVKIEGCISQVSSIHAIGSIKEDYLGAI [G89V] | -0.0578 | -0.154
4 | MFFIKDLSLNITLHPSFFGPRMKQYLKTKLLEEVEGSCTGKFGYILCVLDYDNIDIQRGRILPTDGSAEFNVKYRAVVFKPFKGEVVDRTVVSCSQHGFEVQVGPMKVFVTKHLMPQDLTFNAGSNPPSYQSSEDVITIKSRIRVKIEGCISQVSSIHAIGSIKEDYLGAI [G89R] | -0.00414 | -0.00562
5 | MFFIKDLSLNITLHPSFFGPRMKQYLKTKLLEEVEGSCTGKFGYILCVLDYDNIDIQRGRILPTDGSAEFNVKYRAVVFKPFKGEVVDYTVVSCSQHGFEVQVGPMKVFVTKHLMPQDLTFNAGSNPPSYQSSEDVITIKSRIRVKIEGCISQVSSIHAIGSIKEDYLGAI [G89Y] | 0.125 | 0.106
6 | MFFIKDLSLNITLHPSFFGPRMKQYLKTKLLEEVEGSCTGKFGYILCVLDYDNIDIQRGRILPTDGSAEFNVKYRAVVFKPFKGEVVDNTVVSCSQHGFEVQVGPMKVFVTKHLMPQDLTFNAGSNPPSYQSSEDVITIKSRIRVKIEGCISQVSSIHAIGSIKEDYLGAI [G89N] | -0.266 | -0.228
7 | MFFIKDLSLNITLHPSFFGPRMKQYLKTKLLEEVEGSCTGKFGYILCVLDYDNIDIQRGRILPTDGSAEFNVKYRAVVFKPFKGEVVDTTVVSCSQHGFEVQVGPMKVFVTKHLMPQDLTFNAGSNPPSYQSSEDVITIKSRIRVKIEGCISQVSSIHAIGSIKEDYLGAI [G89T] | -0.312 | -0.262
8 | MFFIKDLSLNITLHPSFFGPRMKQYLKTKLLEEVEGSCTGKFGYILCVLDYDNIDIQRGRILPTDGSAEFNVKYRAVVFKPFKGEVVDKTVVSCSQHGFEVQVGPMKVFVTKHLMPQDLTFNAGSNPPSYQSSEDVITIKSRIRVKIEGCISQVSSIHAIGSIKEDYLGAI [G89K] | -0.353 | -0.321
9 | MFFIKDLSLNITLHPSFFGPRMKQYLKTKLLEEVEGSCTGKFGYILCVLDYDNIDIQRGRILPTDGSAEFNVKYRAVVFKPFKGEVVDITVVSCSQHGFEVQVGPMKVFVTKHLMPQDLTFNAGSNPPSYQSSEDVITIKSRIRVKIEGCISQVSSIHAIGSIKEDYLGAI [G89I] | 0.128 | 0.0696
10 | MFFIKDLSLNITLHPSFFGPRMKQYLKTKLLEEVEGSCTGKFGYILCVLDYDNIDIQRGRILPTDGSAEFNVKYRAVVFKPFKGEVVDLTVVSCSQHGFEVQVGPMKVFVTKHLMPQDLTFNAGSNPPSYQSSEDVITIKSRIRVKIEGCISQVSSIHAIGSIKEDYLGAI [G89L] | -0.382 | -0.296
11 | MFFIKDLSLNITLHPSFFGPRMKQYLKTKLLEEVEGSCTGKFGYILCVLDYDNIDIQRGRILPTDGSAEFNVKYRAVVFKPFKGEVVDGDVVSCSQHGFEVQVGPMKVFVTKHLMPQDLTFNAGSNPPSYQSSEDVITIKSRIRVKIEGCISQVSSIHAIGSIKEDYLGAI [T90D] | -0.241 | -0.189
12 | MFFIKDLSLNITLHPSFFGPRMKQYLKTKLLEEVEGSCTGKFGYILCVLDYDNIDIQRGRILPTDGSAEFNVKYRAVVFKPFKGEVVDGAVVSCSQHGFEVQVGPMKVFVTKHLMPQDLTFNAGSNPPSYQSSEDVITIKSRIRVKIEGCISQVSSIHAIGSIKEDYLGAI [T90A] | -0.0886 | -0.324
13 | MFFIKDLSLNITLHPSFFGPRMKQYLKTKLLEEVEGSCTGKFGYILCVLDYDNIDIQRGRILPTDGSAEFNVKYRAVVFKPFKGEVVDGHVVSCSQHGFEVQVGPMKVFVTKHLMPQDLTFNAGSNPPSYQSSEDVITIKSRIRVKIEGCISQVSSIHAIGSIKEDYLGAI [T90H] | 0.0366 | 0.0338
14 | MFFIKDLSLNITLHPSFFGPRMKQYLKTKLLEEVEGSCTGKFGYILCVLDYDNIDIQRGRILPTDGSAEFNVKYRAVVFKPFKGEVVDGGVVSCSQHGFEVQVGPMKVFVTKHLMPQDLTFNAGSNPPSYQSSEDVITIKSRIRVKIEGCISQVSSIHAIGSIKEDYLGAI [T90G] | 0.0709 | 0.0506
15 | MFFIKDLSLNITLHPSFFGPRMKQYLKTKLLEEVEGSCTGKFGYILCVLDYDNIDIQRGRILPTDGSAEFNVKYRAVVFKPFKGEVVDGEVVSCSQHGFEVQVGPMKVFVTKHLMPQDLTFNAGSNPPSYQSSEDVITIKSRIRVKIEGCISQVSSIHAIGSIKEDYLGAI [T90E] | 0.0965 | 0.0983
16 | MFFIKDLSLNITLHPSFFGPRMKQYLKTKLLEEVEGSCTGKFGYILCVLDYDNIDIQRGRILPTDGSAEFNVKYRAVVFKPFKGEVVDGKVVSCSQHGFEVQVGPMKVFVTKHLMPQDLTFNAGSNPPSYQSSEDVITIKSRIRVKIEGCISQVSSIHAIGSIKEDYLGAI [T90K] | -0.0472 | -0.304
17 | MFFIKDLSLNITLHPSFFGPRMKQYLKTKLLEEVEGSCTGKFGYILCVLDYDNIDIQRGRILPTDGSAEFNVKYRAVVFKPFKGEVVDGIVVSCSQHGFEVQVGPMKVFVTKHLMPQDLTFNAGSNPPSYQSSEDVITIKSRIRVKIEGCISQVSSIHAIGSIKEDYLGAI [T90I] | -0.082 | -0.338

A few values from the list:
Under log2 fold change of mutant abundance [1], MFFIKDLSLNITLHPSFFGPRMKQYLKTKLLEEVEGSCTGKFGYILCVLDYDNIDIQRGRILPTDGSAEFNVKYRAVVFKPFKGEVVDVTVVSCSQHGFEVQVGPMKVFVTKHLMPQDLTFNAGSNPPSYQSSEDVITIKSRIRVKIEGCISQVSSIHAIGSIKEDYLGAI [G89V] reads -0.0578
Under log2 fold change of mutant abundance [1], MFFIKDLSLNITLHPSFFGPRMKQYLKTKLLEEVEGSCTGKFGYILCVLDYDNIDIQRGRILPTDGSAEFNVKYRAVVFKPFKGEVVDGDVVSCSQHGFEVQVGPMKVFVTKHLMPQDLTFNAGSNPPSYQSSEDVITIKSRIRVKIEGCISQVSSIHAIGSIKEDYLGAI [T90D] reads -0.241
